# Experimental data taken from publication PMC8384837.
# Where a chain is given by its changes, count along the chain named. Some of the results follow. For part of these data: At the low end of the ranking, values are background and their order means little.
# Key:
# Conditions in all cases: yeast three-hybrid, YBZ-1, SC-Leu-His + 0.5 mM 3-AT, 4 days
# [1] = biological target: T1, PUM1 PUF domain R5-NGC C1007N + R1008G + Q1011C (UniProt Q14671)
# T1 sequence: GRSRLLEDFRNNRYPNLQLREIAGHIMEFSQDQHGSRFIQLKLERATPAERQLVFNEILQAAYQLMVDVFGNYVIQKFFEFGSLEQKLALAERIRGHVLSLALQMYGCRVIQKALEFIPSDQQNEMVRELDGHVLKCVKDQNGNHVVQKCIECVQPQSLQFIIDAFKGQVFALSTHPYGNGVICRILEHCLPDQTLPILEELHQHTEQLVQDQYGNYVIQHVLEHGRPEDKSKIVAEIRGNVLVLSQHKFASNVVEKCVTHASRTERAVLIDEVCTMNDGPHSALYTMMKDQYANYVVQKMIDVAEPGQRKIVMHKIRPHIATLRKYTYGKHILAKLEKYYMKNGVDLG
# [2] = biological target: T2, PUM1 PUF domain R5-NGS C1007N + R1008G + Q1011S (UniProt Q14671)
# T2 sequence: T1 sequence with C184S
# [3] = biological target: T3, PUM1 PUF domain R5-NLL C1007N + R1008L + Q1011L (UniProt Q14671)
# T3 sequence: T1 sequence with G181L, C184L
# [4] = biological target: T4, PUM1 PUF domain R5-NSV C1007N + R1008S + Q1011V (UniProt Q14671)
# T4 sequence: T1 sequence with G181S, C184V
# [5] = biological target: T5, PUM1 PUF domain R5-PFP C1007P + R1008F + Q1011P (UniProt Q14671)
# T5 sequence: T1 sequence with N180P, G181F, C184P
# [6] = biological target: T6, PUM1 PUF domain R5-PHL C1007P + R1008H + Q1011L (Homo sapiens) (UniProt Q14671)
# T6 sequence: T1 sequence with N180P, G181H, C184L
# [7] = biological target: T7, PUM1 PUF domain R5-PLD C1007P + R1008L + Q1011D (UniProt Q14671)
# T7 sequence: T1 sequence with N180P, G181L, C184D
# [8] = biological target: T8, PUM1 PUF domain R5-PMG C1007P + R1008M + Q1011G (Homo sapiens) (UniProt Q14671)
# T8 sequence: T1 sequence with N180P, G181M, C184G
# [9] = biological target: T9, PUM1 PUF domain R5-PRA C1007P + Q1011A (Homo sapiens) (UniProt Q14671)
# T9 sequence: T1 sequence with N180P, G181R, C184A
# [10] = biological target: T10, PUM1 PUF domain R5-PRC C1007P + Q1011C (Homo sapiens) (UniProt Q14671)
# T10 sequence: T1 sequence with N180P, G181R
# [11] = biological target: T11, PUM1 PUF domain R5-PRE C1007P + Q1011E (Homo sapiens) (UniProt Q14671)
# T11 sequence: T1 sequence with N180P, G181R, C184E
# [12] = biological target: T12, PUM1 PUF domain R5-PRF C1007P + Q1011F (Homo sapiens) (UniProt Q14671)
# T12 sequence: T1 sequence with N180P, G181R, C184F
# [13] = biological target: T13, PUM1 PUF domain R5-PRH C1007P + Q1011H (Homo sapiens) (UniProt Q14671)
# T13 sequence: T1 sequence with N180P, G181R, C184H
# [14] = biological target: T14, PUM1 PUF domain R5-PRI C1007P + Q1011I (Homo sapiens) (UniProt Q14671)
# T14 sequence: T1 sequence with N180P, G181R, C184I
# [15] = biological target: T15, PUM1 PUF domain R5-PRQ C1007P (Homo sapiens) (UniProt Q14671)
# T15 sequence: T1 sequence with N180P, G181R, C184Q
# [16] = biological target: T16, PUM1 PUF domain R5-PRS C1007P + Q1011S (Homo sapiens) (UniProt Q14671)
# T16 sequence: T1 sequence with N180P, G181R, C184S
# [17] = biological target: T17, PUM1 PUF domain R5-QCL C1007Q + R1008C + Q1011L (UniProt Q14671)
# T17 sequence: T1 sequence with N180Q, G181C, C184L
# [18] = biological target: T18, PUM1 PUF domain R5-QCS C1007Q + R1008C + Q1011S (UniProt Q14671)
# T18 sequence: T1 sequence with N180Q, G181C, C184S
# [19] = biological target: T19, PUM1 PUF domain R5-QKV C1007Q + R1008K + Q1011V (Homo sapiens) (UniProt Q14671)
# T19 sequence: T1 sequence with N180Q, G181K, C184V
# [20] = biological target: T20, PUM1 PUF domain R5-QLS C1007Q + R1008L + Q1011S (UniProt Q14671)
# T20 sequence: T1 sequence with N180Q, G181L, C184S
# [21] = biological target: T21, PUM1 PUF domain R5-QLV C1007Q + R1008L + Q1011V (UniProt Q14671)
# T21 sequence: T1 sequence with N180Q, G181L, C184V
# [22] = biological target: T22, PUM1 PUF domain R5-QMG C1007Q + R1008M + Q1011G (UniProt Q14671)
# T22 sequence: T1 sequence with N180Q, G181M, C184G
# [23] = biological target: T23, PUM1 PUF domain R5-QNG C1007Q + R1008N + Q1011G (Homo sapiens) (UniProt Q14671)
# T23 sequence: T1 sequence with N180Q, G181N, C184G
# [24] = biological target: T24, PUM1 PUF domain R5-QQG C1007Q + R1008Q + Q1011G (UniProt Q14671)
# T24 sequence: T1 sequence with N180Q, G181Q, C184G
# [25] = biological target: T25, PUM1 PUF domain R5-QRS C1007Q + Q1011S (Homo sapiens) (UniProt Q14671)
# T25 sequence: T1 sequence with N180Q, G181R, C184S
# [26] = biological target: T26, PUM1 PUF domain R5-RDG C1007R + R1008D + Q1011G (UniProt Q14671)
# T26 sequence: T1 sequence with N180R, G181D, C184G
# [27] = biological target: T27, PUM1 PUF domain R5-RDK C1007R + R1008D + Q1011K (Homo sapiens) (UniProt Q14671)
# T27 sequence: T1 sequence with N180R, G181D, C184K
# [28] = biological target: T28, PUM1 PUF domain R5-RPM C1007R + R1008P + Q1011M (Homo sapiens) (UniProt Q14671)
# T28 sequence: T1 sequence with N180R, G181P, C184M
# [29] = biological target: T29, PUM1 PUF domain R5-RPN C1007R + R1008P + Q1011N (Homo sapiens) (UniProt Q14671)
# T29 sequence: T1 sequence with N180R, G181P, C184N
# [30] = biological target: T30, PUM1 PUF domain R5-SAC C1007S + R1008A + Q1011C (UniProt Q14671)
# T30 sequence: T1 sequence with N180S, G181A
# [31] = biological target: T31, PUM1 PUF domain R5-SAG C1007S + R1008A + Q1011G (Homo sapiens) (UniProt Q14671)
# T31 sequence: T1 sequence with N180S, G181A, C184G
# [32] = biological target: T32, PUM1 PUF domain R5-SAP C1007S + R1008A + Q1011P (UniProt Q14671)
# T32 sequence: T1 sequence with N180S, G181A, C184P
# [33] = biological target: T33, PUM1 PUF domain R5-SAS C1007S + R1008A + Q1011S (UniProt Q14671)
# T33 sequence: T1 sequence with N180S, G181A, C184S
# [34] = biological target: T34, PUM1 PUF domain R5-SAT C1007S + R1008A + Q1011T (UniProt Q14671)
# T34 sequence: T1 sequence with N180S, G181A, C184T
# [35] = biological target: T35, PUM1 PUF domain R5-SED C1007S + R1008E + Q1011D (UniProt Q14671)
# T35 sequence: T1 sequence with N180S, G181E, C184D
# [36] = biological target: T36, PUM1 PUF domain R5-SEQ C1007S + R1008E (UniProt Q14671)
# T36 sequence: T1 sequence with N180S, G181E, C184Q
# [37] = biological target: T37, PUM1 PUF domain R5-SGC C1007S + R1008G + Q1011C (UniProt Q14671)
# T37 sequence: T1 sequence with N180S
# [38] = biological target: T38, PUM1 PUF domain R5-SGG C1007S + R1008G + Q1011G (UniProt Q14671)
# T38 sequence: T1 sequence with N180S, C184G
# [39] = biological target: T39, PUM1 PUF domain R5-SGS C1007S + R1008G + Q1011S (UniProt Q14671)
# T39 sequence: T1 sequence with N180S, C184S
sequence,measurement,setting,value
GGCUAGAACUAGUGGAUCCCCCGGCGCCCGGCGGCUCGAGCCCGGGUAAGUGUCAAUAGUCUGCAUGCCGCCGGGCGCCAUGCCUGCAGGUCGACUCUAGAAAACAUG,binding signal (log2 enrichment (interaction score)),[1],< -6.42
same,binding signal (log2 enrichment (interaction score)),[2],-4.06
same,binding signal (log2 enrichment (interaction score)),[3],< -6.62
same,binding signal (log2 enrichment (interaction score)),[4],< -7.81
same,binding signal (log2 enrichment (interaction score)),[5],< -6.16
same,binding signal (log2 enrichment (interaction score)),[6],-1.55
same,binding signal (log2 enrichment (interaction score)),[7],< -6.18
same,binding signal (log2 enrichment (interaction score)),[8],-1.54
same,binding signal (log2 enrichment (interaction score)),[9],-0.58
same,binding signal (log2 enrichment (interaction score)),[10],-1.45
same,binding signal (log2 enrichment (interaction score)),[11],0.4
same,binding signal (log2 enrichment (interaction score)),[12],-2.81
same,binding signal (log2 enrichment (interaction score)),[13],0.33
same,binding signal (log2 enrichment (interaction score)),[14],-1.12
same,binding signal (log2 enrichment (interaction score)),[15],0.22
same,binding signal (log2 enrichment (interaction score)),[16],0.21
same,binding signal (log2 enrichment (interaction score)),[17],< -5.45
same,binding signal (log2 enrichment (interaction score)),[18],-2.63
same,binding signal (log2 enrichment (interaction score)),[19],1.16
same,binding signal (log2 enrichment (interaction score)),[20],-2.78
same,binding signal (log2 enrichment (interaction score)),[21],< -6.68
same,binding signal (log2 enrichment (interaction score)),[22],< -6.87
same,binding signal (log2 enrichment (interaction score)),[23],-0.85
same,binding signal (log2 enrichment (interaction score)),[24],-3.12
same,binding signal (log2 enrichment (interaction score)),[25],0.35
same,binding signal (log2 enrichment (interaction score)),[26],-4.17
same,binding signal (log2 enrichment (interaction score)),[27],-2.12
same,binding signal (log2 enrichment (interaction score)),[28],-0.48
same,binding signal (log2 enrichment (interaction score)),[29],-0.3
same,binding signal (log2 enrichment (interaction score)),[30],-4.45
same,binding signal (log2 enrichment (interaction score)),[31],-2.21
same,binding signal (log2 enrichment (interaction score)),[32],< -7.7
same,binding signal (log2 enrichment (interaction score)),[33],-5.07
same,binding signal (log2 enrichment (interaction score)),[34],< -7.6
same,binding signal (log2 enrichment (interaction score)),[35],< -6.08
same,binding signal (log2 enrichment (interaction score)),[36],< -6.18
same,binding signal (log2 enrichment (interaction score)),[37],< -7.38
same,binding signal (log2 enrichment (interaction score)),[38],-2.85
same,binding signal (log2 enrichment (interaction score)),[39],-4.67

# Reprinted at random: 3 records from the list, in no set order.
sequence,measurement,setting,value
GGCUAGAACUAGUGGAUCCCCCGGCGCCCGGCGGCUCGAGCCCGGGUAAGUGUCAAUAGUCUGCAUGCCGCCGGGCGCCAUGCCUGCAGGUCGACUCUAGAAAACAUG,binding signal (log2 enrichment (interaction score)),[20],-2.78
same,binding signal (log2 enrichment (interaction score)),[11],0.4
same,binding signal (log2 enrichment (interaction score)),[3],< -6.62
